Some results were stated once for a whole list of compounds, not compound by compound.
What was measured:
Format in all cases: in vivo
[1] = system: common cutworm (Spodoptera litura); assay: Insecticidal testing against common cutworm (cabbage leaf dip, second-stage larvae); details: concentration of 100 ppm, survival rate investigated after 3 days, 25° C.
Experimental: (§1) Insecticidal Testing Against Common Cutworm (Spodoptera litura) Cabbage leaves were immersed in a liquid comprising the testing compound to a predetermined concentration for 30 seconds and air-dried. They were placed in a 7-cm polyethylene cup, and the second-stage larvae of common cutworm were left therein. The cup was placed in a constant-temperature room at 25° C., and the survival rate was investigated after 3 days. The test was carried out with two groups of 5 larvae per group. As a result, Compound No. (to be described later)

[2] = system: diamondback moth (Plutella xylostella); assay: Insecticidal testing against diamondback moth (cabbage leaf dip, second-stage larvae); details: concentration of 100 ppm, survival rate investigated after 3 days, 25° C.
Experimental: as §1, with “Diamondback Moth (Plutella xylostella)” for “Common Cutworm (Spodoptera litura)”, “diamondback moth” for “common cutworm”

[3] = system: small brown planthopper (Laodelphax striatellus); assay: Insecticidal testing against small brown planthopper (acetone solution sprayed on rice); details: concentration of 1000 ppm; survival rate investigated after 6 days; 25° C.

Compound | pesticidal rate [1] [%] | pesticidal rate [2] [%] | pesticidal rate [3] [%]
Cc1cc(C(F)(C(F)(F)F)C(F)(F)F)cc(C)c1NC(=O)c1cccc(NC(=O)c2ccccc2F)n1 [compound 2004] | ≥ 70 | – | –
Cc1cc(C(F)(C(F)(F)F)C(F)(F)F)cc(C)c1NC(=O)c1cccc(N(C)C(=O)c2ccccc2F)n1 [compound 2085] | ≥ 70 | ≥ 70 | ≥ 70
Cc1cc(C(F)(C(F)(F)F)C(F)(F)F)cc(C)c1NC(=O)c1cccc(NC(=O)c2cccnc2F)n1 [compound 2035] | ≥ 70 | – | ≥ 70
Cc1cc(C(F)(C(F)(F)F)C(F)(F)F)cc(C)c1NC(=O)c1cccc(NC(=O)c2cccnc2Cl)n1 [compound 2036] | ≥ 70 | – | –
Cc1cc(C(F)(C(F)(F)F)C(F)(F)F)cc(C)c1NC(=O)c1cccc(NC(=O)c2ccc(Cl)nc2)n1 [compound 2037] | ≥ 70 | ≥ 70 | –
Cc1cc(C(F)(C(F)(F)F)C(F)(F)F)cc(C)c1NC(=O)c1cccc(N(C)C(=O)c2ccc(Cl)nc2)n1 [compound 2117] | ≥ 70 | ≥ 70 | ≥ 70
Cc1cc(C(F)(C(F)(F)F)C(F)(F)F)cc(C)c1NC(=O)c1cccc(N(C)C(=O)c2cccnc2Cl)n1 [compound 2116] | ≥ 70 | ≥ 70 | ≥ 70
Cc1cc(C(F)(C(F)(F)F)C(F)(F)F)cc(C)c1NC(=O)c1cccc(NC(=O)c2ccccc2)[n+]1[O-] [Compound No. 2164, N-(2,6-dimethyl-4-heptafluoroisopropyl)phenyl 6-(benzoylamino)-1-oxopyridin-2-carboxamide] | ≥ 70 | ≥ 70 | –
Cc1cc(C(F)(C(F)(F)F)C(F)(F)F)cc(C)c1NC(=O)c1cccc(N(C)C(=O)c2ccccc2)[n+]1[O-] [compound 2168] | ≥ 70 | ≥ 70 | –
Cc1cc(C(F)(C(F)(F)F)C(F)(F)F)cc(C)c1NC(=O)c1cccc(NC(=O)c2ccccc2)n1 [Compound No. 2001, N-(2,6-dimethyl-4-heptafluoroisopropyl)phenyl 6-(benzoylamino)pyridin-2-carboxamide] | ≥ 70 | ≥ 70 | –
Cc1cc(C(F)(C(F)(F)F)C(F)(F)F)cc(C)c1NC(=O)c1cccc(N(C)C(=O)c2ccccc2)n1 [compound 2082] | ≥ 70 | ≥ 70 | ≥ 70
Cc1cc(C(F)(C(F)(F)F)C(F)(F)F)cc(C)c1NC(=O)c1cccc(NC(=O)c2ccncc2)n1 [compound 2034] | ≥ 70 | ≥ 70 | ≥ 70
Cc1cc(C(F)(C(F)(F)F)C(F)(F)F)cc(C)c1NC(=O)c1cccc(N(C)C(=O)c2ccc(C#N)cc2)n1 [compound 2093] | ≥ 70 | ≥ 70 | ≥ 70

— patent US10435385B2, “Amide derivatives, process for preparation thereof and use thereof as insecticide” (MITSUI CHEMICALS, INC., priority 2004, dated 2019)
